Test results as given in publication PMC9860392, “The N-terminal domain of human mitochondrial helicase Twinkle has DNA-binding activity crucial for supporting processive DNA synthesis by polymerase γ” (The Journal of Biological Chemistry, 2022).
No constants are given. Whether binding was seen depends on the method and setting.

Target: Twinkle N-terminal domain (amino acids 43-372) (human) (UniProt Q96RR1)
Assay: SEC; Superdex 200 Increase 10/300 GL, 4 °C, 0.3 ml/min; 500 μl of 61 μM (monomer) NTD in buffer C (20 mM NaH2PO4 pH 7.7, 0.5 mM EDTA, 1 mM DTT) with 200 mM NaCl and 5% glycerol; size from a calibration curve of protein standards; both purified

- binding: no binding (tested: ∼80 μM)
B1: Twinkle N-terminal domain (amino acids 43-372) (domain or fragment, UniProt Q96RR1 43-372)
chain: ETLQALDMPVLPVTATEIRQYLRGHGIPFQDGHSCLRALSPFAESSQLKGQTGVTTSFSLFIDKTTGHFLCMTSLAEGSWEDFQASVEGRGDGAREGFLLSKAPEFEDSEEVRRIWNRAIPLWELPDQEEVQLADTMFGLTKVTDDTLKRFSVRYLRPARSLVFPWFSPGGSGLRGLKLLEAKCQGDGVSYEETTIPRPSAYHNLFGLPLISRRDAEVVLTSRELDSLALNQSTGLPTLTLPRGTTCLPPALLPYLEQFRRIVFWLGDDLRSWEAAKLFARKLNPKRCFLVRPGDQQPRPLEALNGGFNLSRILRTALPAWHKSIVSFRQ
